Source: PubChem BioAssay AID1259308 (NCATS, 2017)

Aim: 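Genes whose loss raises luciferase production in HEK293 cells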 (primary screen)
Cell system: human HEK293 embryonic kidney cells stably expressing firefly luciferase (HEK-CMV-Luc2-Hygro)
Knock-down reagent: single siRNA against human genes, 0.8 pmol siRNA per well
Timing: 72 h
Detection: 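Luciferase light (ONE-Glo) measured on one replicate plate set and viability (CellTiter-Glo) on the other, scaled to a negative control siRNA, with robust z-scores and luciferase per cell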
Scale: total luciferase, z-score: higher = more reporter protein produced
Rule for the call: 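Active when the median/MAD z-score for overall luciferase is greater than 3; a gene was taken forward for validation with new siRNAs if at least two of its three siRNAs passed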
Meaning of the calls: active = raised luciferase; inactive = no rise
In all, the deposit lists about 59,000 reagents; below is a random part of them. Over the whole deposit, about 1,510 (2.6%) were called active. 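Calls use total luciferase alone and ignore viability, so some active siRNAs may act by altering cell number.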 A number with no mark means an inactive call. The numbers tell different reagents against one gene apart. Further read-outs or replicates are left out here.

total luciferase, z-score, by gene and reagent
MLF2: #1 -0.159; #2 0.845; #3 -1.28
TNC: #1 0.785; #2 -0.0244; #3 0.582
SRSF5: #1 -0.811; #2 -0.576; #3 3.81 (active)
ALG8: #1 0.946; #2 -0.715; #3 -1.55
SNAPC1: #1 0.356; #2 -0.126; #3 -0.28
SLC6A1: #1 1.27; #2 -0.224; #3 -0.616
ZBED8L: #1 -0.353; #2 -1.69; #3 -0.57
UTP18: #1 -0.392; #2 -1.48; #3 -1.01
LYPLAL1: #1 -0.21; #2 0.17; #3 0.174
NOPCHAP1: #1 -0.874; #2 -0.905; #3 -1.27
TSHZ1: #1 1.02; #2 -0.538; #3 -1.56
LECT2: #1 -0.000419; #2 -1.42; #3 0.473
HBP1: #1 0.593; #2 0.112; #3 0.0676
LRRC46: #1 0.249; #2 -0.408; #3 -0.661
FBXO36: #1 -0.941; #2 1.5; #3 1.31
LINC00615: #1 -2.19; #2 0.69; #3 0.668
TCERG1L: #1 -0.641; #2 0.143; #3 -0.698
HNRNPDL: #1 4.58 (active); #2 -0.541; #3 3.55 (active)
WNT4: #1 -2.43; #2 2.78; #3 0.57

As entered above.
Entry of TCERG1L #3 in “total luciferase, z-score”: -0.698
For “total luciferase, z-score”, LRRC46 #3 has -0.661
Result of NOPCHAP1 #2 under “total luciferase, z-score”: -0.905
Entry for LINC00615 #3 in “total luciferase, z-score”: 0.668
